# Results: the supplement of paper PMC4604168 (melanoma cell lines)
# This is one part of the list. Many values rest on one well or one pass, so single values are uncertain.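 The apoptosis fraction was the count of cleaved-PARP antibody-stained nuclei relative to all DNA-stained nuclei, imaged in 1,536-well plates. Screening doses were set so most cells survived, and baseline and induced cleaved-PARP levels vary greatly across cell lines.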
# Tested on: SkMel5
# Experiment: cleaved PARP positive nuclei fraction relative to DMSO control; melanoma cells; higher = more apoptosis
# Conditions: library dose: low library concentration; 72 h
row,SMILES,cleaved PARP positive nuclei fraction [%]
1,"CO[C@H]1C[C@@H]2CC[C@@H](C)[C@@](O)(O2)C(=O)C(=O)N2CCCC[C@H]2C(=O)O[C@H]([C@H](C)C[C@@H]2CC[C@@H](OCCO)[C@H](OC)C2)CC(=O)[C@H](C)/C=C(\C)[C@@H](O)[C@@H](OC)C(=O)[C@H](C)C[C@H](C)/C=C/C=C/C=C/1C [everolimus] + c1cc(-c2cnn3cc(-c4ccc(OCCN5CCCCC5)cc4)cnc23)ccn1 [Dorsomorphin] (first compound 0.02 µM, partner dose 0.4 µM)",86.8
2,"CO[C@H]1C[C@@H]2CC[C@@H](C)[C@@](O)(O2)C(=O)C(=O)N2CCCC[C@H]2C(=O)O[C@H]([C@H](C)C[C@@H]2CC[C@@H](OCCO)[C@H](OC)C2)CC(=O)[C@H](C)/C=C(\C)[C@@H](O)[C@@H](OC)C(=O)[C@H](C)C[C@H](C)/C=C/C=C/C=C/1C [everolimus] + O=C(Nc1cccc(Cl)c1)Nc1ncc(CCNc2ncnc3ccsc23)s1 [SNS314] (first compound 0.02 µM, partner dose 0.0008 µM)",31.9
3,"CO[C@H]1C[C@@H]2CC[C@@H](C)[C@@](O)(O2)C(=O)C(=O)N2CCCC[C@H]2C(=O)O[C@H]([C@H](C)C[C@@H]2CC[C@@H](OCCO)[C@H](OC)C2)CC(=O)[C@H](C)/C=C(\C)[C@@H](O)[C@@H](OC)C(=O)[C@H](C)C[C@H](C)/C=C/C=C/C=C/1C [everolimus] + Oc1nc(-c2ccc(C(F)(F)F)cc2)nc2c1CSCC2 [XAV939] (first compound 0.02 µM, partner dose 2 µM)",101
